According to PubChem BioAssay AID180 (DTP/NCI, 2004):
The list is a part of this screen's results and no random one: it is rich in T/C values a quarter to a half above the control, in often repeated tests (any T/C) and in doses without a T/C. Other doses and runs of a compound stand elsewhere. T/C: endpoint of the treated group in % of that of the vehicle group. Schedules are NCI's codes, taken here to give the interval after Q, in days (D) or hours (H), and the number of doses after X. Some T/C values carry the count of animals alive at the toxicity check (mostly the fifth day); where none is given, no animal had died by that day. Some doses were run more than once; the results are listed from low to high. Some entries give survivors of the animals treated and no T/C: the source holds a T/C of zero for them, seemingly a mark for toxic or unscored doses. Counts of survivors are from the toxicity check (mostly the fifth day) where no day follows; animals may have died later.

System: BDF1 mice, Adenocarcinoma 755 s.c., tumor weight T/C
Assay: NCI In Vivo Anticancer Drug Screen. Data for tumor model Adenocarcinoma 755 (subcutaneous) in B6D2F1 (BDF1) mice
Conditions: T/C endpoint: mean tumor weight, higher T/C = larger tumour; for T/C: evaluated on day 12
Experimental: The antitumor activity of compounds was measured in mice bearing transplantable tumors. Survival or tumor size were measured and the results are expressed as the measurement made in the treated group (T) divided by the measurement made in the vehicle treated control group (C). The tumor model used in this assay is Adenocarcinoma 755 (subcutaneous) in B6D2F1 (BDF1) mice

[1] = dose: 8.0 mg/kg/injection, schedule: Q01DX011 (ip), vehicle: methylcellulose (MC)
[2] = dose: 120.0 mg/kg/injection, schedule: Q01DX011 (ip), vehicle: carboxymethylcellulose (CMC)

`CC1([CH2][Hg][I])OCCOC1[CH2][Hg][I]` (configuration not stated) was tested, and the survivor count (dose: 21.9 mg/kg/injection, schedule: Q01DX011 (ip), vehicle: saline) was 6 of 10, the survivor count (dose: 22.0 mg/kg/injection, schedule: Q01DX011 (ip), vehicle: carboxymethylcellulose (CMC)) was 6 of 10 and the survivor count (dose: 43.8 mg/kg/injection, schedule: Q01DX011 (ip), vehicle: saline) was 3 of 10. The survivor count (dose: 44.0 mg/kg/injection, schedule: Q01DX011 (ip), vehicle: carboxymethylcellulose (CMC)) was 4 of 10, the survivor count (dose: 87.6 mg/kg/injection, schedule: Q01DX011 (ip), vehicle: saline) was 0 of 10 and the survivor count (dose: 88.0 mg/kg/injection, schedule: Q01DX011 (ip), vehicle: carboxymethylcellulose (CMC)) was 0 of 10.

`O=C(Nc1ccc([N+](=O)[O-])cc1)Nc1ccc([N+](=O)[O-])cc1` (tested in a mixture with another compound) was tested, and the T/C (dose: 87.5 mg/kg/injection, schedule: Q01DX011 (ip), vehicle: methylcellulose (MC)) was 127 % of control, the survivor count (dose: 175.0 mg/kg/injection, schedule: Q01DX011 (ip), vehicle: methylcellulose (MC)) was 6 of 10 and the survivor count (dose: 500.0 mg/kg/injection, schedule: Q01DX011 (ip), vehicle: methylcellulose (MC)) was 5 of 10.

In the case of `Nc1nc(-c2cccnc2)nc(N)c1N=O`, the T/C (dose: 15.0 mg/kg/injection, schedule: Q01DX011 (ip), vehicle: methylcellulose (MC)) is reported as 129 % of control [9 of 10 alive].

`CCSCCC(N)C(=O)O` (configuration not stated) was tested, and the T/C (dose: 10.25 mg/kg/injection, schedule: Q01DX011 (ip), vehicle: carboxymethylcellulose (CMC)) was 142 % of control [9 of 10 alive], the T/C (dose: 41.0 mg/kg/injection, schedule: Q01DX011 (ip), vehicle: carboxymethylcellulose (CMC)) was 144 % of control and the survivor count (dose: 75.0 mg/kg/injection, schedule: Q01DX011 (ip), vehicle: methylcellulose (MC)) was 5 of 10. For the same compound, the survivor count (dose: 150.0 mg/kg/injection, schedule: Q01DX011 (ip), vehicle: methylcellulose (MC)) was 5 of 10, the survivor count (dose: 452.0 mg/kg/injection, schedule: Q01DX011 (ip), vehicle: carboxymethylcellulose (CMC)) was 5 of 10 and the survivor count (dose: 452.0 mg/kg/injection, schedule: Q01DX011 (ip), vehicle: other) was 6 of 10.

In the case of `C=CCSc1nc(N)nc2nc[nH]c12`, the survivor count (dose: 1.0 mg/kg/injection, schedule: Q01DX011 (ip), vehicle: methylcellulose (MC)) is reported as 4 of 10 and 5 of 10, the survivor count (dose: 2.0 mg/kg/injection, schedule: Q01DX011 (ip), vehicle: methylcellulose (MC)) is reported as 3 of 10 and the survivor count (dose: 4.0 mg/kg/injection, schedule: Q01DX011 (ip), vehicle: methylcellulose (MC)) is reported as 3 of 10. For the same compound, the T/C [1] was 3, 5, 7 % of control [9 of 10 alive], the survivor count [1] was 2 of 10 and the survivor count (dose: 64.0 mg/kg/injection, schedule: Q01DX011 (ip), vehicle: methylcellulose (MC)) was 5 of 10.

In the case of `C1CN1P1(N2CC2)=NP(N2CC2)(N2CC2)=NP(N2CC2)(N2CC2)=NP(N2CC2)(N2CC2)=N1`, the survivor count (dose: 24.0 mg/kg/injection, schedule: Q02DX006 (ip), vehicle: carboxymethylcellulose (CMC)) is reported as 3 of 10.

`O=C(O)Cn1cccc1` was tested, and the survivor count (dose: 8000.0 mg/kg/injection, schedule: Q01DX011 (ip), vehicle: other) was 1 of 10.

`NC(=O)c1ccc(NC(=O)CCC(=O)Nc2ccc(C(N)=O)cn2)nc1` was tested, and the survivor count (dose: 10.0 mg/kg/injection, schedule: Q01DX011 (ip), vehicle: carboxymethylcellulose (CMC)) was 0 of 10 and the survivor count (dose: 20.0 mg/kg/injection, schedule: Q01DX011 (ip), vehicle: carboxymethylcellulose (CMC)) was 0 of 10.

For `CCCCn1cnc2c(SSc3ncnc4c3ncn4CCCC)ncnc21`, the survivor count (dose: 240.0 mg/kg/injection, schedule: Q01DX011 (ip), vehicle: other) was 0 of 10.

In the case of `N=[N+]=CC(=O)OCC(N)C(=O)O` (configuration not stated), the T/C (dose: 3.6 mg/kg/injection, schedule: Q01DX011 (ip), vehicle: carboxymethylcellulose (CMC)) is reported as 136 % of control [9 of 10 alive] and the survivor count (dose: 18.5 mg/kg/injection, schedule: Q01DX011 (ip), vehicle: carboxymethylcellulose (CMC)) is reported as 5 of 10.

For `Nc1ncnc2nc(/N=N/SCCC(=O)O)[nH]c12`, the survivor count (dose: 300.0 mg/kg/injection, schedule: Q01DX011 (ip), vehicle: saline) was 4 of 10.

`Nc1nsnc1C(=O)O` was tested, and the T/C (dose: 46.0 mg/kg/injection, schedule: Q01DX011 (ip), vehicle: carboxymethylcellulose (CMC)) was 125 % of control and the survivor count (dose: 375.0 mg/kg/injection, schedule: Q01DX011 (ip), vehicle: carboxymethylcellulose (CMC)) was 5 of 10.

`Cc1ccc(C)c(N=Nc2c(S(=O)(=O)O)cc3cc(NC(=O)Nc4ccc5c(O)c(N=Nc6ccc7cc(S(=O)(=O)O)ccc7c6)c(S(=O)(=O)O)cc5c4)ccc3c2O)c1` was tested, and the survivor count (dose: 65.0 mg/kg/injection, schedule: Q01DX011 (ip), vehicle: carboxymethylcellulose (CMC)) was 5 of 10 and the survivor count (dose: 100.0 mg/kg/injection, schedule: Q01DX011 (ip), vehicle: carboxymethylcellulose (CMC)) was 3 of 10.

For `NC(N)=Nc1nc2ccccc2o1`, the survivor count (dose: 880.0 mg/kg/injection, schedule: Q01DX011 (ip), vehicle: methylcellulose (MC)) was 2 of 10.

`CCCC(=O)OCC1OC(n2cnc3c(=S)nc(N)[nH]c32)C(OC(=O)CCC)C1OC(=O)CCC` (configuration not stated) was tested, and the survivor count (dose: 24.0 mg/kg/injection, schedule: Q01DX011 (ip), vehicle: saline) was 3 of 10, the survivor count (dose: 35.0 mg/kg/injection, schedule: Q01DX011 (ip), vehicle: saline) was 3 of 10 and the survivor count (dose: 48.0 mg/kg/injection, schedule: Q01DX011 (ip), vehicle: carboxymethylcellulose (CMC)) was 0 of 10. For the same compound, the survivor count (dose: 55.0 mg/kg/injection, schedule: Q01DX011 (ip), vehicle: saline) was 0 of 10 and the survivor count (dose: 80.0 mg/kg/injection, schedule: Q01DX011 (ip), vehicle: saline) was 0 of 10.

In the case of `Nc1nc2nc(/N=N/SCCO)[nH]c2c(=O)[nH]1`, the survivor count (dose: 100.0 mg/kg/injection, schedule: Q01DX011 (ip), vehicle: methylcellulose (MC)) is reported as 2 of 10.

For `[N-]=[N+]=C1N=CN=C1c1ncn[nH]1`, the survivor count (dose: 50.0 mg/kg/injection, schedule: Q01DX011 (ip), vehicle: carboxymethylcellulose (CMC)) was 6 of 10 and the survivor count (dose: 75.0 mg/kg/injection, schedule: Q01DX011 (ip), vehicle: carboxymethylcellulose (CMC)) was 0 of 10.

In the case of `O=C1N(Br)C(=O)C(c2ccc(Cl)cc2)(c2ccc(Cl)cc2)N1Br`, the survivor count (dose: 56.0 mg/kg/injection, schedule: Q01DX011 (ip), vehicle: carboxymethylcellulose (CMC)) is reported as 6 of 10, the survivor count (dose: 112.0 mg/kg/injection, schedule: Q01DX011 (ip), vehicle: carboxymethylcellulose (CMC)) is reported as 2 of 10 and the survivor count [2] is reported as 4 of 10.

In the case of `CC(=O)NCCc1ccccc1`, the survivor count (dose: 100.0 mg/kg/injection, schedule: Q01DX011 (ip), vehicle: other) is reported as 4 of 10.

In the case of `C[C@]12C=CC(=O)C=C1CC[C@H]1[C@@H]3C[C@@H](O)[C@](O)(C(=O)CO)[C@@]3(C)C[C@H](O)[C@@]12F`, the survivor count (dose: 50.0 mg/kg/injection, schedule: Q01DX011 (sc), vehicle: steroid suspending solution) is reported as 6 of 10 and the survivor count (dose: 100.0 mg/kg/injection, schedule: Q01DX011 (sc), vehicle: steroid suspending solution) is reported as 2 of 10.

With `[N-]=[N+]=NC1(C(=O)O)CCCC1` the T/C [2] was 139 % of control [9 of 10 alive].

`CC(=O)OC1CCC(C2CCCCC2)CC1` (configuration not stated) was tested, and the T/C (dose: 15.0 mg/kg/injection, schedule: Q01DX011 (ip), vehicle: saline) was 134 % of control and the T/C (dose: 113.0 mg/kg/injection, schedule: Q01DX011 (ip), vehicle: saline) was 128 % of control [8 of 10 alive].
